# From PMC12194779, “Synergistic Insecticidal Activity of Plant Volatile Compounds: Impact on Neurotransmission and Detoxification Enzymes in Sitophilus zeamais” (Insects, 2025)
# Tested on: Sitophilus zeamais
# Assay type: in vivo
# Settings: topical, 24 h after exposure
row,Structure (SMILES),"Contact Toxicity βi (±SD), slope of the mortality regression curve"
1,"C=C(C)[C@H]1CC=C(C)C(=O)C1 [Compound C3, S-(+)-Carvone]",0.12 (±0.015)
2,"C=C(C)[C@@H]1CC=C(C)C(=O)C1 [Compound C4, R-(−)-Carvone]",0.11 (±0.012)
3,"CC1=CC[C@@](O)(C(C)C)CC1 [Compound C5, R-(−)-Terpinen-4-ol]",0.25 (±0.035)
4,"CC1C(=O)CC2(C(C)C)CC12 (stereo not drawn) [Compound C6, α, β-Thujone (70:10)]",0.10 (±0.013)
5,"C=C(C)[C@@H]1CC[C@@H](C)C[C@H]1O [Compound C7, 1R,2S,5R-Isopulegol]",0.17 (±0.019)
6,"CC1(C)C(=O)[C@]2(C)CC[C@H]1C2 [Compound C8, 1R-(−)-Fenchone]",0.09 (±0.010)
7,"CCCCCCCC(C)=O [Compound C9, 2-Nonanone]",0.16 (±0.021)
8,"C=CCc1ccc(OC)cc1 [Compound C11, Estragole]",0.038 (±0.005)
9,"C=CCc1ccc(O)c(OC)c1 [Compound C26, Eugenol]",0.13 (±0.015)
10,"C=CC(C)(O)CCC=C(C)C (stereo not shown) [Compound C28, Linalool]",0.09 (±0.011)
11,"C/C=C/c1ccc(OC)cc1 [Compound C29, trans-Anethol]",0.06 (±0.008)
12,"CC(C)=CCC/C(C)=C/CO [Compound C30, Geraniol]",0.01 (±0.011)
13,"C=CCc1ccc2c(c1)OCO2 [Compound C32, Safrole]",0.03 (±0.003)
14,"CC(C)=CCC[C@@H](C)CC=O [Compound C33, Citronellal]",0.09 (±0.012)
15,"CCCCCCCC(=O)CCC [Compound C34, 4-Undecanone]",0.08 (±0.010)
16,"CCCCCCCCC(C)=O [Compound C35, 2-Decanone]",0.07 (±0.007)
17,"CCCCCCCCCC(C)=O [Compound C36, 2-Undecanone]",0.09 (±0.011)
18,"CC(=O)OC/C=C(\C)CCC=C(C)C [Compound C37, Geranyl acetate]",0.02 (±0.003)
19,"CC1(C)C(C=C(Cl)Cl)C1C(=O)OC(C#N)c1cccc(Oc2ccccc2)c1 (stereo not shown) [Cypermethrin, reference compound]",0.08 (±0.019)
